# Results deposited as PubChem BioAssay AID1224826 (NIAID, 2016)
# Screen: 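Knock-downs that raise or lower Tnf reporter signal after endotoxin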 (primary screen)
# Cell system: RAW264.7 G9 macrophages from mouse bearing reporters for p65 (GFP) and the Tnf promoter (mCherry)
# Reagent: siRNA pool against mouse genes, 100 nM
# Duration: 16 h of LPS stimulation, after 2 days of siRNA transfection
# Challenge: bacterial lipopolysaccharide (Salmonella minnesota R595), 10 ng/ml
# Read-out: 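Imaged Tnf reporter mCherry in nuclei, minus background, normalised per plate to the median and expressed as robust z-scores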
# Direction: Tnf reporter robust z-score: higher = stronger Tnf promoter reporter signal after LPS
# Call rule: 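a well counts as active at a score of -1.3 or below (Tlr4 knock-down control median) or above 3 (raised signal); controls and wells holding fewer than 50 cells are excluded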
# Meaning of the calls: active = Tnf reporter clearly lowered or raised; inactive = no clear change in Tnf reporter
# The deposit covers about 17,000 reagents; this is an unselected part. In the full data, about 1,110 (6.6%) are marked active. 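Active means lowered or raised reporter signal; replicate intensities are raw and not normalised per plate.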 A number with no mark means an inactive call. Reagents against one gene are numbered here. Not all columns of the deposit are shown. Reagent sequences are not shown.
target,reagent no.,Tnf reporter robust z-score,fewer than 50 cells in well
Mrtfb (myocardin related transcription factor B),1,-0.5,enough cells in well
Mrtfb (myocardin related transcription factor B),2,0.05,enough cells in well
Mib1 (MIB E3 ubiquitin protein ligase 1),1,-0.22,enough cells in well
"Zdhhc1 (zinc finger, DHHC domain containing 1)",1,-0.21,enough cells in well
Atp8a1 (ATPase phospholipid transporting 8A1),1,-0.57,enough cells in well
"Sult2b1 (sulfotransferase family, cytosolic, 2B, member 1)",1,-0.15,enough cells in well
"Eif2s1 (eukaryotic translation initiation factor 2, subunit 1 alpha)",1,-0.33,enough cells in well
Dusp16 (dual specificity phosphatase 16),1,-0.86,enough cells in well
Btk (Bruton agammaglobulinemia tyrosine kinase),1,-0.41,enough cells in well
Rph3al (rabphilin 3A-like (without C2 domains)),1,-0.44,enough cells in well
Rpl5 (ribosomal protein L5),1,-1.85 (active),enough cells in well
Asb17 (ankyrin repeat and SOCS box-containing 17),1,-0.09,enough cells in well
"Mdh1b (malate dehydrogenase 1B, NAD (soluble))",1,-0.67,enough cells in well
Vcan (versican),1,0.64,enough cells in well
"Tlx2 (T cell leukemia, homeobox 2)",1,-1.17,enough cells in well
"Yipf1 (Yip1 domain family, member 1)",1,0.2,enough cells in well
Fubp1 (far upstream element (FUSE) binding protein 1),1,-0.06,enough cells in well
Fhod1 (formin homology 2 domain containing 1),1,1.26,enough cells in well
Or6c70 (olfactory receptor family 6 subfamily C member 70),1,0.95,enough cells in well
Polr2b (polymerase (RNA) II (DNA directed) polypeptide B),1,-1.81 (active),enough cells in well
Or1x2 (olfactory receptor family 1 subfamily X member 2),1,1.17,enough cells in well
Prpf40a (pre-mRNA processing factor 40A),1,0.01,enough cells in well
Zfp998 (zinc finger protein 998),1,,fewer than 50 cells per well; well left out of calls
Ankra2 (ankyrin repeat family A member 2),1,-0.29,enough cells in well
Cdk14 (cyclin dependent kinase 14),1,0.57,enough cells in well
Hc (hemolytic complement),1,-0.59,enough cells in well
Bbs1 (Bardet-Biedl syndrome 1),1,0.71,enough cells in well
Echdc1 (enoyl Coenzyme A hydratase domain containing 1),1,-0.16,enough cells in well
Ltb4r2 (leukotriene B4 receptor 2),1,0.1,enough cells in well
Dhcr24 (24-dehydrocholesterol reductase),1,-0.5,enough cells in well
Mims1 (mitochondrial inner membrane scaffold 1),1,,fewer than 50 cells per well; well left out of calls
Or10j3b (olfactory receptor family 10 subfamily J member 3B),1,-0.86,enough cells in well
Tpsab1 (tryptase alpha/beta 1),1,-1.07,enough cells in well
Iqcf3 (IQ motif containing F3),1,-0.18,enough cells in well
Cul4a (cullin 4A),1,-1.02,enough cells in well
Or1e19 (olfactory receptor family 1 subfamily E member 19),1,-0.4,enough cells in well
Fibp,1,-0.49,enough cells in well
Mocs2 (molybdenum cofactor synthesis 2),1,0.31,enough cells in well
"Cyp4f15 (cytochrome P450, family 4, subfamily f, polypeptide 15)",1,-1.02,enough cells in well
Edil3 (EGF-like repeats and discoidin I-like domains 3),1,-0.45,enough cells in well
Gpr88 (G-protein coupled receptor 88),1,-0.69,enough cells in well
Asb12 (ankyrin repeat and SOCS box-containing 12),1,1.53,enough cells in well
Fut7 (fucosyltransferase 7),1,0.75,enough cells in well
Hrc (histidine rich calcium binding protein),1,-0.93,enough cells in well
Kcnc3,1,-0.08,enough cells in well
Snx16 (sorting nexin 16),1,,fewer than 50 cells per well; well left out of calls
Tmem234 (transmembrane protein 234),1,0.78,enough cells in well
Dusp11,1,-0.34,enough cells in well
"Prl3c1 (prolactin family 3, subfamily c, member 1)",1,-0.24,enough cells in well
Fdps (farnesyl diphosphate synthetase),1,-1.46 (active),enough cells in well
B3galt1,1,1.13,enough cells in well
"Prkcq (protein kinase C, theta)",1,1.08,enough cells in well
Chit1 (chitinase 1),1,,fewer than 50 cells per well; well left out of calls
Dnmt1 (DNA methyltransferase 1),1,-0.08,enough cells in well
"Btc (betacellulin, epidermal growth factor family member)",1,-0.45,enough cells in well
Pcid2 (PCI domain containing 2),1,-1.36 (active),enough cells in well
Mpzl2 (myelin protein zero-like 2),1,-1.28,enough cells in well
"Ttll6 (tubulin tyrosine ligase-like family, member 6)",1,,fewer than 50 cells per well; well left out of calls
